The assay deals with B6C3F1 mice, Lewis lung carcinoma iv, survival T/C. The assay is described as follows: NCI In Vivo Anticancer Drug Screen. Data for tumor model Lewis Lung Carcinoma (intravenous) in B6C3F1 mice. The following applies: T/C endpoint: median survival time, higher T/C = longer survival. In a few lines:
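Tumors were transplanted into mice, which were then dosed with compound or vehicle. Survival was recorded in each group, and the treated figure was divided by the control figure.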

Setting [1] is: dose: 40.0 mg/kg/injection, schedule: Q01DX009 (ip), vehicle: saline with Tween-80.
[2] abbreviates: dose: 400.0 mg/kg/injection, schedule: Q01DX009 (ip), vehicle: saline.
The mark [3] stands for this setting: dose: 100.0 mg/kg/injection, schedule: Q01DX009 (ip), vehicle: saline with Tween-80.
Where [4] appears, read: dose: 200.0 mg/kg/injection, schedule: Q01DX009 (ip), vehicle: saline with Tween-80.
Setting [5] is: dose: 400.0 mg/kg/injection, schedule: Q01DX009 (ip), vehicle: saline with Tween-80.
The mark [6] stands for this setting: dose: 100.0 mg/kg/injection, schedule: Q01DX009 (ip), vehicle: Klucel (hydroxypropylcellulose) (HPC).
Setting [7] is: dose: 200.0 mg/kg/injection, schedule: Q01DX009 (ip), vehicle: Klucel (hydroxypropylcellulose) (HPC).
[8] abbreviates: dose: 100.0 mg/kg/injection, schedule: Q01DX009 (ip), vehicle: saline.
[9] abbreviates: dose: 200.0 mg/kg/injection, schedule: Q01DX009 (ip), vehicle: saline.
[10] abbreviates: dose: 25.0 mg/kg/injection, schedule: Q01DX009 (ip), vehicle: Klucel (hydroxypropylcellulose) (HPC).
[11] abbreviates: dose: 400.0 mg/kg/injection, schedule: Q01DX009 (ip), vehicle: Klucel (hydroxypropylcellulose) (HPC).

The list shows only some results of the screen, not a fair sample: it gathers tests that were run many times, whatever their T/C, doses with no T/C, and many T/C values between a quarter and a half above the control. Further doses and runs are listed elsewhere. T/C is the treated group as % of the vehicle group. Some doses have a count of surviving animals in place of a T/C: the source files T/C as zero there, which appears to mark a toxic dose or a test without result, not a measured value. Some doses without a T/C left all or most animals alive at the check, yet need not have been tolerated: survival well below the control is almost never listed, so the zero probably covers shortened survival too. Survivors were counted at the toxicity check, usually on the fifth day, unless a day is given; later deaths do not show. Schedules are NCI's codes, read here as Q, the interval in days (D) or hours (H), X, the number of doses. Some entries were tested several times; their values stand side by side, smallest first. Where survival is the endpoint, this PubChem deposit counts one and a half times the control or more as active, and values a quarter to a half above the control carry no call in these data; other NCI protocols may use other cut-offs. Some T/C values are followed by the survivors on the day toxicity was checked, most often the fifth; without a count, all were alive then.

`CN1CCN(c2ccc([N+](=O)[O-])c3no[n+]([O-])c23)CC1`: the survivor count reads like this: (dose: 20.0 mg/kg/injection, schedule: Q01DX009 (ip), vehicle: saline with Tween-80) 8 of 10; under setting [1], 7 of 10; (dose: 80.0 mg/kg/injection, schedule: Q01DX009 (ip), vehicle: saline with Tween-80) 8 of 10.

In the case of `O=C1SC(c2ccccc2)=S=C1c1ccccc1`, for the setting “dose: 800.0 mg/kg/injection, schedule: Q01DX009 (ip), vehicle: saline with Tween-80”, the survivor count is reported as 8 of 10.

In the case of `O=CC(S)CO` (stereo unspecified), the survivor count under setting [2] was 4 of 10 and 8 of 10.

For the compound `Cc1cc(=O)n2c3c(c4c(cc13)c(CN(C)C)cc(=O)n4C)OC2`, the survivor count under setting [3] was 8 of 10.

For the compound `O=C(C1CO1)C(Cl)(Cl)Cl` (stereo unspecified), the survivor count is, setting by setting: (dose: 50.0 mg/kg/injection, schedule: Q01DX009 (ip), vehicle: saline with Tween-80) 1 of 8; under setting [3], 0 of 8; under setting [4], 0 of 8.

On to `C[PH+](C)C.C[PH+](C)C.[Au]`, for which, for the setting “dose: 20.0 mg/kg/injection, schedule: Q01DX009 (ip), vehicle: saline”, the survivor count is 3 of 10.

As to `O=[N+]([O-])c1ccc(-n2[nH]nnc2=S)cc1`, the survivor count under setting [5] is reported as 8 of 10.

Regarding `O=C(Nc1cccc(Cl)c1)ON1C(=O)C2C(C1=O)C1(Cl)C(Cl)C(Cl)C2(Cl)C1(Cl)Cl` (stereo unspecified), the survivor count is, setting by setting: under setting [4], 6 of 10; under setting [5], 6 of 10.

As for `Nc1ncnc2c1nnn2C1OC(CO)C(O)C1O` (stereo unspecified), the survivor count reads like this: under setting [6], 9 of 10; under setting [7], 3 of 10.

With `[Cl][Pt][Cl].[NH-]C(CO)C(=O)O` (stereo unspecified), the survivor count (dose: 100.0 mg/kg/injection, schedule: Q01DX009 (ip), vehicle: water) was 4 of 10.

Turning to `COc1cc2c(ccc3c4cc(OC)c(OC)cc4c[n+](C)c23)cc1O`, the T/C is, setting by setting: under setting [8], 125 % of control; under setting [9], 134 % of control [9 of 10 alive]. Under setting [2], the survivor count is given as 10 of 10.

As for `CCOc1cc2c(cc1C(C)c1ccc(OC)cc1)OCO2` (stereo unspecified), the survivor count is, setting by setting: (dose: 100.0 mg/kg/injection, schedule: Q01DX009 (ip), vehicle: DMSO) 0 of 10; (dose: 100.0 mg/kg/injection, schedule: Q01DX009 (ip), vehicle: distilled water + Tween-80 + alcohol) 5 of 6; (dose: 100.0 mg/kg/injection, schedule: Q01DX009 (ip), vehicle: distilled water + alcohol) 9 of 10; (dose: 200.0 mg/kg/injection, schedule: Q01DX009 (ip), vehicle: DMSO) 0 of 10; (dose: 200.0 mg/kg/injection, schedule: Q01DX009 (ip), vehicle: distilled water + alcohol) 0 of 10; (dose: 400.0 mg/kg/injection, schedule: Q01DX009 (ip), vehicle: DMSO) 0 of 10. Also, the survivor count was 0 of 10 (dose: 400.0 mg/kg/injection, schedule: Q01DX009 (ip), vehicle: distilled water + alcohol); 0 of 10 (dose: 800.0 mg/kg/injection, schedule: Q01DX009 (ip), vehicle: DMSO); 0 of 10 (dose: 800.0 mg/kg/injection, schedule: Q01DX009 (ip), vehicle: distilled water + alcohol).

`COc1c(C=O)c2c(c(OC)c1OC)-c1ccc(OC)c(=O)cc1[C@@H](NC(C)=O)CC2`: the survivor count is 6 of 10 (dose: 12.5 mg/kg/injection, schedule: Q01DX009 (ip), vehicle: Klucel (hydroxypropylcellulose) (HPC)) and 5 of 10 under setting [10].

Turning to `O=C(Nc1ccccc1C(=O)O)c1cc([N+](=O)[O-])cc([N+](=O)[O-])c1`, the survivor count under setting [5] is reported as 8 of 10.

As to `CC(C)CCC(=O)c1ccoc1`, the survivor count (dose: 2.0 mg/kg/injection, schedule: Q03HX027 (ip), vehicle: saline with Tween-80) is listed as 6 of 10.

With `Cc1cc(Nc2ccc3c(c2)OCO3)c2cc3c(cc2n1)OCO3`, the survivor count under setting [6] is listed as 10 of 10, the survivor count under setting [7] was 1 of 10 and the survivor count under setting [11] is recorded as 0 of 10.

`COC(=O)Nc1nc2ccc(SC)cc2c(=O)[nH]1`: the survivor count under setting [11] is 6 of 10.

With `COc1ccc2[nH]c3c(c2c1)CCNC3CC(C)CCC=C(C)C` (stereo unspecified), the survivor count under setting [7] is reported as 5 of 10.

Turning to `CN=C(N)N/N=C(\C)c1ccc2c(c1)Cc1cc(/C(C)=N/NC(N)=NC)ccc1-2`, the survivor count (dose: 6.0 mg/kg/injection, schedule: Q01DX009 (ip), vehicle: saline with Tween-80) was 10 of 10 and the survivor count (dose: 12.0 mg/kg/injection, schedule: Q01DX009 (ip), vehicle: saline with Tween-80) is listed as 2 of 7.

Consider `CCC(C(=O)O)C(=O)O.[NH-]CC1CCCC[N-]1.[Pt+2]`, for which the T/C under setting [8] was 126 % of control. Further, the survivor count under setting [9] was 10 of 10; the survivor count (dose: 200.0 mg/kg/injection, schedule: Q01DX009 (ip), vehicle: suspension in saline) is 3 of 10; the survivor count under setting [2] is given as 0 of 10; the survivor count (dose: 400.0 mg/kg/injection, schedule: Q01DX009 (ip), vehicle: suspension in saline) was 0 of 10.

As for `O=NN(CCF)C(=O)NC1CCCCC1`, the T/C (dose: 6.0 mg/kg/injection, schedule: Q01DX009 (ip), vehicle: Klucel (hydroxypropylcellulose) (HPC)) was 128 % of control; the T/C (dose: 6.25 mg/kg/injection, schedule: Q01DX009 (ip), vehicle: Klucel (hydroxypropylcellulose) (HPC)) was 126 % of control [8 of 9 alive]; the T/C under setting [10] was 141 % of control. Also, the survivor count under setting [1] was 1 of 10 on day 9; the survivor count (dose: 50.0 mg/kg/injection, schedule: Q01DX009 (ip), vehicle: Klucel (hydroxypropylcellulose) (HPC)) is 3 of 10 and 7 of 10; the survivor count under setting [6] is 0 of 10; the survivor count under setting [7] was 0 of 10.

Regarding `CC[C@H](CC[C@@H](C)C1CC[C@H]2[C@@H]3CC=C4C[C@@H](OP(=O)(N5CC5)N5CC5)CC[C@]4(C)[C@H]3CC[C@]12C)C(C)C` (stereo partly specified), under setting [5], the survivor count is recorded as 10 of 10.

As to `COC(OC(CO)C(O)S(=O)(=O)O)C(O)S(=O)(=O)O` (stereo unspecified), the survivor count under setting [2] is listed as 6 of 10.

As to `CN(N=O)C(N)=O`, the T/C (dose: 6.0 mg/kg/injection, schedule: Q01DX009 (ip), vehicle: saline) is 136 % of control and the T/C (dose: 12.0 mg/kg/injection, schedule: Q01DX009 (ip), vehicle: saline) was 141 % of control. The survivor count (dose: 50.0 mg/kg/injection, schedule: Q01DX009 (ip), vehicle: saline) is on record as 4 of 10.

Turning to `Cc1cc(O)c2c(c1O)C(=O)C13C(=C2O)C(=O)C2C(O)C1C1C(O)C3C(=O)C3=C(O)c4c(O)cc(C)c(O)c4C(=O)C321` (stereo unspecified), the survivor count is 9 of 10 (dose: 1.56 mg/kg/injection, schedule: Q01DX009 (ip), vehicle: saline with Tween-80); 8 of 10 (dose: 3.12 mg/kg/injection, schedule: Q01DX009 (ip), vehicle: saline with Tween-80); 1 of 10 and 2 of 10 (dose: 6.25 mg/kg/injection, schedule: Q01DX009 (ip), vehicle: saline with Tween-80); 0 of 10 (dose: 12.5 mg/kg/injection, schedule: Q01DX009 (ip), vehicle: saline with Tween-80).

`CCC1OC(OC)C=CC1=O` (stereo unspecified): the T/C (dose: 25.0 mg/kg/injection, schedule: Q01DX009 (ip), vehicle: saline) was 126 % of control. The survivor count is, setting by setting: under setting [8], 5 of 10; under setting [9], 0 of 10.

`CC(CN1CC(=O)NC(=O)C1)N1CC(=O)NC(=O)C1` (stereo unspecified): where the note is “dose: 64.8 mg/kg/injection, schedule: Q04DX003 (ip), vehicle: Klucel (hydroxypropylcellulose) (HPC)”, the T/C is 130 % of control. Further, the survivor count (dose: 500.0 mg/kg/injection, schedule: Q04DX003 (ip), vehicle: Klucel (hydroxypropylcellulose) (HPC)) is listed as 10 of 10.

Take `COC1CC(C)C(OC)c2cc(O)cc(c2O)NC(=O)/C(C)=C/C=C\C(C)C(OC(N)=O)/C(C)=C\C(C)C1OC` (stereo unspecified): the survivor count (dose: 20.0 mg/kg/injection, schedule: Q01DX009 (ip), vehicle: saline + alcohol) is on record as 7 of 10.
